Measured values from US5710244A (priority 1993, dated 1998).

Test: general procedure: Fmoc solid-phase peptide synthesis; FMOC-Rink-amide MBHA resin; HBTU/HOBt; HOBt/DIC for N-terminal modification
Conditions: oxidative folding step, reversed phase HPLC, C4 analytical column, 270 nm, one disulfide bridge, sequence written open

Substance	purity (crude or final not stated) [%]
2-Pyrazinoyl-modified calcitonin (ZP-7 or 2-Pyr-SCT)	>95
Pycolinyl-modified Calcitonin (ZP-6 or Pic-SCT)	90
